These are yes or no findings as the source states them, for the method shown. Binding seen in cells or lysates may run through a third protein. Some binding calls cover weakened binding; strength is not graded here.
Experiments:
[1] = target: T1, Annexin A1 (mouse (endogenous in SVFs, mature adipocytes, H5V)) (UniProt P10107); test: co-IP; endogenous proteins in lysates of mature adipocytes, Protein A/G resin, immunoblot
T1 sequence: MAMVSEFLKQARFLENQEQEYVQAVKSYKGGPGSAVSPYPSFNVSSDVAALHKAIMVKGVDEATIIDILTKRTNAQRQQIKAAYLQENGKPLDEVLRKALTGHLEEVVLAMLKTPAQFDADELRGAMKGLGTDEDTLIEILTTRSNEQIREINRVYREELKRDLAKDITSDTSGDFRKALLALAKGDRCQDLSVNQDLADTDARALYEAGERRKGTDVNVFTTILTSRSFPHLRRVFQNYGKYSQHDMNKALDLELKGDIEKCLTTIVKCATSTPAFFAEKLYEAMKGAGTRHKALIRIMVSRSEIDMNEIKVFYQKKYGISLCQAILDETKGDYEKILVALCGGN

Protein sequences, listed by entry. Tags and fused reporters are not part of them. Lines headed by an entry give the natural chain unless they say otherwise; changes in a name come on top.
UniProt Q7TPH6: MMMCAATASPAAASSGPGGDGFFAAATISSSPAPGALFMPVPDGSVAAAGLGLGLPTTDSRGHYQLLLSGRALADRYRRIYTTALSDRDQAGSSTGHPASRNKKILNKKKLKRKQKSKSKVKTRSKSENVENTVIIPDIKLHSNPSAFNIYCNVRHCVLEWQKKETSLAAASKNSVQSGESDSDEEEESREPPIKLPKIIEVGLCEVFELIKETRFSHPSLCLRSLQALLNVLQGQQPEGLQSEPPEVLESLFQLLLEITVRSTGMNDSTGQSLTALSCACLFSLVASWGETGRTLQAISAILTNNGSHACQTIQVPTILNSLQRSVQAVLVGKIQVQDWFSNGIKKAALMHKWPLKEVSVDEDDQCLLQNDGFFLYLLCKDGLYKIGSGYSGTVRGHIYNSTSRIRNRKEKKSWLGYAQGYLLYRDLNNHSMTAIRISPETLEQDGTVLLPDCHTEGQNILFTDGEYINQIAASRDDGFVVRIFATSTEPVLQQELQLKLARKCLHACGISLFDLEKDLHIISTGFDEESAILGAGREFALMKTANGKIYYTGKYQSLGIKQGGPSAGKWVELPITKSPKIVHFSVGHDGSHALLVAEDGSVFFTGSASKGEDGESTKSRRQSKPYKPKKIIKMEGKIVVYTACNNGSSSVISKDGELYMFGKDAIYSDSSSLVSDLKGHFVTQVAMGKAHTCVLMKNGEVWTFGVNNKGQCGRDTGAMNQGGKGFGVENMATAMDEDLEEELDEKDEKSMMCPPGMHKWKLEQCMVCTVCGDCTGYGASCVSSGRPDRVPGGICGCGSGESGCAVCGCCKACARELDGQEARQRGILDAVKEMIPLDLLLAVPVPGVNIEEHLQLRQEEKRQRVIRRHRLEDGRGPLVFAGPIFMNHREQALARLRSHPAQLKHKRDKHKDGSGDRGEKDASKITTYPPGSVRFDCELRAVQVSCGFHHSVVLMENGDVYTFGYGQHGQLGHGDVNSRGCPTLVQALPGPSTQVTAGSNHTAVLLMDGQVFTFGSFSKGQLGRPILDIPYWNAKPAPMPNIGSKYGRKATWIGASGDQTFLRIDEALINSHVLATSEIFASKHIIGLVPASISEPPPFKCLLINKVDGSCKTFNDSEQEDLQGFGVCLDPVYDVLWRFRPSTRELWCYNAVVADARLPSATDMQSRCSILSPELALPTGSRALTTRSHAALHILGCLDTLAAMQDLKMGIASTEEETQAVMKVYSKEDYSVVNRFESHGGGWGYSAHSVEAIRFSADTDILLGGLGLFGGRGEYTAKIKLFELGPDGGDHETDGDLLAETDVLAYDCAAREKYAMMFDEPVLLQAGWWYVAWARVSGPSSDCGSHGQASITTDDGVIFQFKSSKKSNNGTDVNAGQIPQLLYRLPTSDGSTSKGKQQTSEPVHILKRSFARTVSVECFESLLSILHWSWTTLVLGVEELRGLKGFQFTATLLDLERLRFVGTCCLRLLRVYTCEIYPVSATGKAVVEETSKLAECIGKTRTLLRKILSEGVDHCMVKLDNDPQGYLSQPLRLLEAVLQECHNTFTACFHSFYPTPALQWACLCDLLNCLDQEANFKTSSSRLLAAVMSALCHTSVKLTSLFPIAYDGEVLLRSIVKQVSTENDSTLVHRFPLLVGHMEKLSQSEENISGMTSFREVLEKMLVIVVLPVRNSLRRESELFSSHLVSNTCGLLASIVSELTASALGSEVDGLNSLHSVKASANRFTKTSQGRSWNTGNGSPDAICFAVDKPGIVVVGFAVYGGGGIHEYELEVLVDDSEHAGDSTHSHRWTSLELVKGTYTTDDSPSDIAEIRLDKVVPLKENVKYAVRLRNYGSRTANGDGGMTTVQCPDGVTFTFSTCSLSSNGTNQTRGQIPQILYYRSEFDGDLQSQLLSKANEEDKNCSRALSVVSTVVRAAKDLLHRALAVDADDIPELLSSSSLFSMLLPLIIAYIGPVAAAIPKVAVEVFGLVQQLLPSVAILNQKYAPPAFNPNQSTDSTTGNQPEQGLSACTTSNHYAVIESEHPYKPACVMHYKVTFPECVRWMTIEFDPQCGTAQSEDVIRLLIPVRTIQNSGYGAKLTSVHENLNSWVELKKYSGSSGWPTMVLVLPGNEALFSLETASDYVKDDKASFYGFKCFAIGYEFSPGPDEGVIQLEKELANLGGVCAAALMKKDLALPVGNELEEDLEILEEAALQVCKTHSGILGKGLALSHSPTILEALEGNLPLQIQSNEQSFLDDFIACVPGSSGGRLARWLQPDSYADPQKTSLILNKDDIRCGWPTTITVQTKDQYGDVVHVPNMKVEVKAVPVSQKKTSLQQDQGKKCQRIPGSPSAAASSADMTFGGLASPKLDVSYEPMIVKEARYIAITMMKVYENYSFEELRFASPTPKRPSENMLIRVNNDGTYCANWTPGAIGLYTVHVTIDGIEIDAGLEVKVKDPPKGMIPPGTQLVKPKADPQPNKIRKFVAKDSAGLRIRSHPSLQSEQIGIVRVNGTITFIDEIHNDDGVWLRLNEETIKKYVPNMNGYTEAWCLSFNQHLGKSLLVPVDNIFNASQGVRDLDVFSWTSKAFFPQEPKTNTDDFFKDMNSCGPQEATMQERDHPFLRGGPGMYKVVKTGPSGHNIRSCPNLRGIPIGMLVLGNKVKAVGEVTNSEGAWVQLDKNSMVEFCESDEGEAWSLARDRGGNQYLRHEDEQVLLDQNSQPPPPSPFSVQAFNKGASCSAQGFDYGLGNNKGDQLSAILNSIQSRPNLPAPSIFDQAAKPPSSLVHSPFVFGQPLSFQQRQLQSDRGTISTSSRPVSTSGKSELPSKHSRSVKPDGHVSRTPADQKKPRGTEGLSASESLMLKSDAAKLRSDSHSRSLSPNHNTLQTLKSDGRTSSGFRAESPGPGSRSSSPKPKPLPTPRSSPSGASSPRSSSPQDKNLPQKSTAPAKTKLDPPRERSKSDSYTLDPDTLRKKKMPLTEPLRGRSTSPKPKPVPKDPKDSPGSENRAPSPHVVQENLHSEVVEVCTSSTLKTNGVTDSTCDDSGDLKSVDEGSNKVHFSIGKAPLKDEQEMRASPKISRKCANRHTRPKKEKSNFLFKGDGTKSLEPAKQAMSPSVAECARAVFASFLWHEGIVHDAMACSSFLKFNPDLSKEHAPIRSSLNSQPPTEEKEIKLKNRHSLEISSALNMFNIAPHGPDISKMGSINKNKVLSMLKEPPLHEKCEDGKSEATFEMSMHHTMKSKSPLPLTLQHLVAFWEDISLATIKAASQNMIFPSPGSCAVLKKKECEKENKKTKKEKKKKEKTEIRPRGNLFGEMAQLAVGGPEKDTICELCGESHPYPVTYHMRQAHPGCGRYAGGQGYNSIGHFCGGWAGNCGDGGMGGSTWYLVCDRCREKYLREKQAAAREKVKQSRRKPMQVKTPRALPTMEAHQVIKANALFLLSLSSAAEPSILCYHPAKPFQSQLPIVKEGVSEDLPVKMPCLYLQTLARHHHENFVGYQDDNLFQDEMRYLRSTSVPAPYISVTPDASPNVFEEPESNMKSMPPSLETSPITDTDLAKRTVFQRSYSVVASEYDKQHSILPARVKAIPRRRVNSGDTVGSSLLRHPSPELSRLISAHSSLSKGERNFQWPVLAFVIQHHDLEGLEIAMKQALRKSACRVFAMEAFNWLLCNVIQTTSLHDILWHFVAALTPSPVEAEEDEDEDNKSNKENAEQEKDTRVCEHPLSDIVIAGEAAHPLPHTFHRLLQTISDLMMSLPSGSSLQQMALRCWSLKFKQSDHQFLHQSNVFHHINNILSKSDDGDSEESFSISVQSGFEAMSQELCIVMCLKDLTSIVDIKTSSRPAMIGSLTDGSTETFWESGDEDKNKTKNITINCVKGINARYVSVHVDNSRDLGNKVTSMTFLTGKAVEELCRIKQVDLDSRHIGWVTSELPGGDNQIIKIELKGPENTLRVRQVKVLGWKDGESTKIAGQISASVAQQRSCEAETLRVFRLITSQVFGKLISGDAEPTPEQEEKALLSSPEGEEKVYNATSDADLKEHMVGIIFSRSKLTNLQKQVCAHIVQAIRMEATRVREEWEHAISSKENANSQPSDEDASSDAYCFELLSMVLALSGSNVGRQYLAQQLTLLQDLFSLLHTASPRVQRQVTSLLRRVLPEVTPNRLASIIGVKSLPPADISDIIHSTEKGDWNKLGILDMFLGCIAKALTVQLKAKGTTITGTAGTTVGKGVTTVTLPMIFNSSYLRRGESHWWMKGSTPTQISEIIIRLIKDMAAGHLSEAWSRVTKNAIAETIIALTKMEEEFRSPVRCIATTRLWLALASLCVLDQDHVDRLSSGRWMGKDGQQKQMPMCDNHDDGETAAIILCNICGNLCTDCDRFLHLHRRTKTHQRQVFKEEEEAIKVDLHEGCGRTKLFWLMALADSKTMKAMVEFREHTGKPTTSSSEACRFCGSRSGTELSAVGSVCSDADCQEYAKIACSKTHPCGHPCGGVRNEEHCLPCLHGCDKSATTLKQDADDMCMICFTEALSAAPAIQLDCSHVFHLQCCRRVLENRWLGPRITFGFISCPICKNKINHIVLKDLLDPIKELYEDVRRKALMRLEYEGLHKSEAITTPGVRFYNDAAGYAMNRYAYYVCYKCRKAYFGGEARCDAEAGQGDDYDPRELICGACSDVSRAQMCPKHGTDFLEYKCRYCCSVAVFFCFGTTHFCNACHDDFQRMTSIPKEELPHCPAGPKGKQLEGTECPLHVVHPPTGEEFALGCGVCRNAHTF
UniProt Q3TJD7: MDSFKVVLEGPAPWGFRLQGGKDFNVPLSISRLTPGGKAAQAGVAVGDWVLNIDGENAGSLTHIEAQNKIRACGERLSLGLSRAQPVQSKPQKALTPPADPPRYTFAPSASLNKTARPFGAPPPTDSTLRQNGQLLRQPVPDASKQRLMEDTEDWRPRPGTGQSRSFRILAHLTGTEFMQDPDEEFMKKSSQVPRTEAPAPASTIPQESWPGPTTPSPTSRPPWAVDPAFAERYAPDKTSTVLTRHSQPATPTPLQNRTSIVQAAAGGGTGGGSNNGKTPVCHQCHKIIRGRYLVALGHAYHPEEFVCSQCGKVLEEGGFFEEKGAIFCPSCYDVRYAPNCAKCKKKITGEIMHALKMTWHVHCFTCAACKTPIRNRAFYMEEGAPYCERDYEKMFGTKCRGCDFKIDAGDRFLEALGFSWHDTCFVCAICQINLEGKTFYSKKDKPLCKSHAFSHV
UniProt P97471: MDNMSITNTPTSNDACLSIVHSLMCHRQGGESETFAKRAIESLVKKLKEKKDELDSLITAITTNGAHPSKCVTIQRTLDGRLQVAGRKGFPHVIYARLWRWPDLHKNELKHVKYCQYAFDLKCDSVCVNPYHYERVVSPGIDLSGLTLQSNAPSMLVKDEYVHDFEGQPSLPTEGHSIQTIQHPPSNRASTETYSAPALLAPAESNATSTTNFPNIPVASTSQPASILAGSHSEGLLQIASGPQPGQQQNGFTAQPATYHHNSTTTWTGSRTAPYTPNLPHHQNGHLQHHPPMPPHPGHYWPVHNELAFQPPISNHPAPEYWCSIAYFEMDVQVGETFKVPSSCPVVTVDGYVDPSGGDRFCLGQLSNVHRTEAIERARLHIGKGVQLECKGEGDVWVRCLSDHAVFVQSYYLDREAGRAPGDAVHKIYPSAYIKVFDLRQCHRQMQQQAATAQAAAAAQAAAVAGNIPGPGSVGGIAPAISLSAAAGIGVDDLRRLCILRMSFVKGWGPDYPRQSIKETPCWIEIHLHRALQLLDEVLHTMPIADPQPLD

[2] = target: T1, Annexin A1 (mouse (endogenous in SVFs, mature adipocytes, H5V)); test: co-IP; endogenous proteins in lysates of the murine microvascular endothelial cell line H5V, Protein A/G resin, immunoblot
[3] = target: T1, Annexin A1 (mouse (endogenous in SVFs, mature adipocytes, H5V)); test: co-IP; endogenous proteins in lysates of mouse SVFs (Pierce IP Lysis Buffer), antibody overnight at 4 °C, Protein A/G resin, immunoblot; some panels after ANXA1 siRNA, PDLIM7 siRNA or NC siRNA for 48 h and 10 µM MG132 for 6 h
[4] = target: MYC binding protein 2 (mouse (endogenous in SVFs, mature adipocytes, H5V)) (UniProt Q7TPH6); test: co-IP; endogenous proteins in lysates of mature adipocytes, Protein A/G resin, immunoblot
[5] = target: MYC binding protein 2 (mouse (endogenous in SVFs, mature adipocytes, H5V)) (UniProt Q7TPH6); test: co-IP; endogenous proteins in lysates of the murine microvascular endothelial cell line H5V, Protein A/G resin, immunoblot
[6] = target: MYC binding protein 2 (mouse (endogenous in SVFs, mature adipocytes, H5V)) (UniProt Q7TPH6); test: co-IP; endogenous proteins in lysates of mouse SVFs (Pierce IP Lysis Buffer), antibody overnight at 4 °C, Protein A/G resin, immunoblot; some panels after ANXA1 siRNA, PDLIM7 siRNA or NC siRNA for 48 h and 10 µM MG132 for 6 h
[7] = target: PDZ and LIM domain 7 (mouse (endogenous in SVFs, mature adipocytes, H5V)) (UniProt Q3TJD7); test: co-IP; endogenous proteins in lysates of mature adipocytes, Protein A/G resin, immunoblot
[8] = target: PDZ and LIM domain 7 (mouse (endogenous in SVFs, mature adipocytes, H5V)) (UniProt Q3TJD7); test: co-IP; endogenous proteins in lysates of the murine microvascular endothelial cell line H5V, Protein A/G resin, immunoblot
[9] = target: PDZ and LIM domain 7 (mouse (endogenous in SVFs, mature adipocytes, H5V)) (UniProt Q3TJD7); test: co-IP; endogenous proteins in lysates of mouse SVFs (Pierce IP Lysis Buffer), antibody overnight at 4 °C, Protein A/G resin, immunoblot; some panels after ANXA1 siRNA, PDLIM7 siRNA or NC siRNA for 48 h and 10 µM MG132 for 6 h

Measured: binding

PDZ and LIM domain 7 (from UniProt Q3TJD7 1-457)
binds: [1] | [2] | [3]

SMAD family member 4 (from UniProt P97471 1-551)
binds: [4] | [5] | [6]

MYC binding protein 2 (from UniProt Q7TPH6 1-4749) (enzyme)
binds: [7] | [8] | [9]

From article PMC11341699
